Assay results from paper PMC7862700.
The list shows a part of the results, in another mix than the full data. For some of these results: At the low end of the ranking, values are background and their order means little. The list shows a part of the results. For some of these results: Construct or isoform of the protein are uncertain.

What was measured:
Test in all cases: DAPPL (digital affinity profiling via proximity ligation, sequencing)
Conditions in all cases: 10 mM Tris-HCl pH 7.5, 50 mM NaCl, 1 mM DTT, 4% glycerol, room temperature, 30 min; GST-TFs on glutathione beads, 16-mer random dsDNA library, 0.1% …; high values mean tight binding; double strand, one strand shown; scale: fold enrichment (6-mer frequency, TF over GST control)
ETS1 = target: T1, ETS1 (UniProt P14921)
T1 sequence: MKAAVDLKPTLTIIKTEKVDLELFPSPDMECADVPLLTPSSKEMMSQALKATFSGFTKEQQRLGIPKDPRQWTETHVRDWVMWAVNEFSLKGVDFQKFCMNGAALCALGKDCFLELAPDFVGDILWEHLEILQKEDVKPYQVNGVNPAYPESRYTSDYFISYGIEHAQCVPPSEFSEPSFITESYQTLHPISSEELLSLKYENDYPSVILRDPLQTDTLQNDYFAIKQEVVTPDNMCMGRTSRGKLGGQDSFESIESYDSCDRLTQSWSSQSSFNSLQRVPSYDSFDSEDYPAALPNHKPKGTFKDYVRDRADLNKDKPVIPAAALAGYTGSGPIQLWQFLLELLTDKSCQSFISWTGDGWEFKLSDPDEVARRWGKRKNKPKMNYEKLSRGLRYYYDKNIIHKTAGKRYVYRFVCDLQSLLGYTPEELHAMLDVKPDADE

GABPA = target: T2, GABPA (UniProt Q06546)
T2 sequence: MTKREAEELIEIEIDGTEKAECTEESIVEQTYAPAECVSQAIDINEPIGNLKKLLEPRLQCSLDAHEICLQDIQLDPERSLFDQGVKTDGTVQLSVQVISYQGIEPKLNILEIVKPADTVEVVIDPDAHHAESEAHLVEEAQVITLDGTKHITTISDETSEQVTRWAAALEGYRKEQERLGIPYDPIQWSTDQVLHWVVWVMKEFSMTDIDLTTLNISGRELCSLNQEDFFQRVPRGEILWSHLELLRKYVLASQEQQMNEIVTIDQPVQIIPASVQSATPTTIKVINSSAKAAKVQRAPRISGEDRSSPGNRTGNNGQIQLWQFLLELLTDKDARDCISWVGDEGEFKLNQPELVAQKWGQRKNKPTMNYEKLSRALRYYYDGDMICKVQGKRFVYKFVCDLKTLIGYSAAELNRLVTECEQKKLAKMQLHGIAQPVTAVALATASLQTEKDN

SPDEF = target: T3, SPDEF (UniProt O95238)
T3 sequence: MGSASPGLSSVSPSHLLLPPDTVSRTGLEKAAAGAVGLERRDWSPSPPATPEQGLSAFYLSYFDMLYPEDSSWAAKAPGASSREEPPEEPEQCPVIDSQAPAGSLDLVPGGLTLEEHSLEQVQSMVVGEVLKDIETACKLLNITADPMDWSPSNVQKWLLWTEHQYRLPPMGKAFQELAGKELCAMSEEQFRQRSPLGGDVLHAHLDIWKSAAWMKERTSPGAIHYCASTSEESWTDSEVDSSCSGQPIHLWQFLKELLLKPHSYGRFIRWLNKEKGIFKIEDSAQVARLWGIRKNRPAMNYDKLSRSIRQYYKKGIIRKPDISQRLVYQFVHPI

## CCCTTT
ETS1
  binding signal: 1.4

## AGTTCC
ETS1
  binding signal: 2.14

## TCGACA
ETS1
  binding signal: 1.42

## GCTCGT
ETS1
  binding signal: 1.23

## GGCTCA
ETS1
  binding signal: 1.17

## ATCTTT
ETS1
  binding signal: 1.26

## CCCTAA
ETS1
  binding signal: 1.18

## ATATTA
ETS1
  binding signal: 1.09

## CGACTC
ETS1
  binding signal: 1.33

## TTCACT
ETS1
  binding signal: 1.37

## AAGAAT
ETS1
  binding signal: 1.15

## TGCGCT
ETS1
  binding signal: 1.22

## CCCCCA
ETS1
  binding signal: 1.2

## TAAGGT
ETS1
  binding signal: 1.12

## TAAACG
ETS1
  binding signal: 1.18

## CTGCCG
ETS1
  binding signal: 1.33

## TGCACG
ETS1
  binding signal: 1.13

## ATGTAC
ETS1
  binding signal: 1.37

## ATAAAT
ETS1
  binding signal: 1.23

## TTAACT
ETS1
  binding signal: 1.26

## GTTCCA
ETS1
  binding signal: 1.1

## CGTTAA
ETS1
  binding signal: 1.17

## TTCCGT
ETS1
  binding signal: 1.91

## TGGAAA
ETS1
  binding signal: 1.08

## TTGCGT
ETS1
  binding signal: 1.12

## ACTGCG
ETS1
  binding signal: 1.15

## TTCTGC
ETS1
  binding signal: 1.47

## ATTCCC
ETS1
  binding signal: 1.31

## GAAAAG
ETS1
  binding signal: 1.08

## TCTAAA
ETS1
  binding signal: 1.18

## ACGTTA
ETS1
  binding signal: 1.08

## CTCTAA
ETS1
  binding signal: 1.45

## AACGTC
ETS1
  binding signal: 1.07

## CGACTT
ETS1
  binding signal: 1.77

## ACTTAT
ETS1
  binding signal: 1.32

## CCTTTC
ETS1
  binding signal: 1.65

## CGAAAG
GABPA
  binding signal: 1.08
ETS1
  binding signal: 1.06

## TAACGA
GABPA
  binding signal: 1.07
ETS1
  binding signal: 1.13

## TTCCAG
GABPA
  binding signal: 0.971
ETS1
  binding signal: 1.07

## TACCCG
GABPA
  binding signal: 1.51
ETS1
  binding signal: 1.52

## TTCAGT
GABPA
  binding signal: 1.06
ETS1
  binding signal: 1.07

## TTATTG
GABPA
  binding signal: 1.28
ETS1
  binding signal: 1.35

## TGTAGC
GABPA
  binding signal: 1.16
ETS1
  binding signal: 1.19

## CATCGA
GABPA
  binding signal: 0.979
ETS1
  binding signal: 1.02

## CGATCT
GABPA
  binding signal: 1.29
ETS1
  binding signal: 1.41

## ATGAGC
GABPA
  binding signal: 1.33
ETS1
  binding signal: 1.24

## TAGTCC
GABPA
  binding signal: 1.12
ETS1
  binding signal: 1.25

## GATGGT
GABPA
  binding signal: 1.16
ETS1
  binding signal: 1.3

## AATGGC
GABPA
  binding signal: 1.37
ETS1
  binding signal: 1.42

## TTAAGT
GABPA
  binding signal: 1.16
ETS1
  binding signal: 1.14

## GATTTC
GABPA
  binding signal: 1.55
ETS1
  binding signal: 1.68

## ATATAC
GABPA
  binding signal: 1.2
ETS1
  binding signal: 1.13

## CTCTGG
GABPA
  binding signal: 1.3
ETS1
  binding signal: 1.41

## CGCTCA
GABPA
  binding signal: 1.16
ETS1
  binding signal: 1.19

## CAACAT
GABPA
  binding signal: 1.22
ETS1
  binding signal: 1.17

## ATCTCC
GABPA
  binding signal: 1.56
ETS1
  binding signal: 1.41

## TGTGGA
GABPA
  binding signal: 1.06
ETS1
  binding signal: 1.01

## TATGGA
GABPA
  binding signal: 1.09
ETS1
  binding signal: 1.12

## CTCGTA
GABPA
  binding signal: 1.3
ETS1
  binding signal: 1.21

## TGAAAA
GABPA
  binding signal: 0.995
ETS1
  binding signal: 1.13

## TCTGTT
GABPA
  binding signal: 1.24
ETS1
  binding signal: 1.36

## TTCCTT
GABPA
  binding signal: 1.84
ETS1
  binding signal: 2.14

## ACAGAT
GABPA
  binding signal: 0.987
ETS1
  binding signal: 1.01

## ACCTAC
GABPA
  binding signal: 1.21
ETS1
  binding signal: 1.13

## CGAGCT
GABPA
  binding signal: 1.09
ETS1
  binding signal: 1.2

## TGGTTC
GABPA
  binding signal: 1.35
ETS1
  binding signal: 1.38

## TGCCAA
GABPA
  binding signal: 1.06
ETS1
  binding signal: 1.11

## CTCGCC
GABPA
  binding signal: 1.26
ETS1
  binding signal: 1.26

## GCTGTA
GABPA
  binding signal: 1.15
ETS1
  binding signal: 0.972

## ACTCTC
GABPA
  binding signal: 1.41
ETS1
  binding signal: 1.48

## ATCGAT
GABPA
  binding signal: 1.19
ETS1
  binding signal: 1.11

## TTTAAA
GABPA
  binding signal: 1.19
ETS1
  binding signal: 1.29

## CTTCAT
GABPA
  binding signal: 1.45
ETS1
  binding signal: 1.52

## ACCACT
GABPA
  binding signal: 1.35
ETS1
  binding signal: 1.31

## GTTCCG
GABPA
  binding signal: 1.64
ETS1
  binding signal: 1.82

## TACGAA
GABPA
  binding signal: 1.3
ETS1
  binding signal: 1.22

## TAATGT
GABPA
  binding signal: 1.08
ETS1
  binding signal: 1.08

## TAAAAG
GABPA
  binding signal: 1.24
ETS1
  binding signal: 1.13

## AATGAG
GABPA
  binding signal: 1.22
ETS1
  binding signal: 1.18

## AGAATT
GABPA
  binding signal: 1.11
ETS1
  binding signal: 1.26

## AAGATA
GABPA
  binding signal: 1.14
ETS1
  binding signal: 1.11

## CGATAA
GABPA
  binding signal: 1.06
ETS1
  binding signal: 1.06

## TTACCG
GABPA
  binding signal: 1.12
ETS1
  binding signal: 1.22

## AATAAT
GABPA
  binding signal: 1.31
ETS1
  binding signal: 1.34

## TCCCGC
GABPA
  binding signal: 1.4
ETS1
  binding signal: 1.39

## TACATG
GABPA
  binding signal: 1.14
ETS1
  binding signal: 1.19

## GAAGTT
GABPA
  binding signal: 1.63
ETS1
  binding signal: 1.72

## ATTTCC
GABPA
  binding signal: 3.59
ETS1
  binding signal: 3.57

## ACTACT
GABPA
  binding signal: 1.28
ETS1
  binding signal: 1.3

## CTCGAT
GABPA
  binding signal: 1.32
ETS1
  binding signal: 1.38

## CGATAC
GABPA
  binding signal: 1.27
ETS1
  binding signal: 1.09

## GAACCC
GABPA
  binding signal: 1.16
ETS1
  binding signal: 1.17

## TATCTA
GABPA
  binding signal: 1.35
ETS1
  binding signal: 1.26

## TCCGAC
GABPA
  binding signal: 1.32
ETS1
  binding signal: 1.39

## ATATGG
GABPA
  binding signal: 1.28
ETS1
  binding signal: 1.34

## TACATC
GABPA
  binding signal: 1.51
ETS1
  binding signal: 1.63

## TGATCT
GABPA
  binding signal: 1.18
ETS1
  binding signal: 1.15

## ATCTTC
GABPA
  binding signal: 1.48
ETS1
  binding signal: 1.5

## TACTGC
GABPA
  binding signal: 1.17
ETS1
  binding signal: 1.2

## CTCCTA
GABPA
  binding signal: 1.38
ETS1
  binding signal: 1.44

## CGTATT
GABPA
  binding signal: 1.12
ETS1
  binding signal: 1.14

## GTATAT
GABPA
  binding signal: 1.13
ETS1
  binding signal: 1.27

## TGACGA
GABPA
  binding signal: 1.21
ETS1
  binding signal: 1.18

## ATATCG
GABPA
  binding signal: 1.14
ETS1
  binding signal: 1.2

## CTGAAT
GABPA
  binding signal: 1.36
ETS1
  binding signal: 1.55

## GACCTG
GABPA
  binding signal: 1.19
ETS1
  binding signal: 1.23

## GCCTCC
GABPA
  binding signal: 1.23
ETS1
  binding signal: 1.29

## TCCTTT
GABPA
  binding signal: 1.72
ETS1
  binding signal: 1.77

## GTGGCT
GABPA
  binding signal: 1.27
ETS1
  binding signal: 1.14

## AAGCAG
GABPA
  binding signal: 1.13
ETS1
  binding signal: 1.16

## TCACAT
GABPA
  binding signal: 1.23
ETS1
  binding signal: 1.33

## CTATAA
GABPA
  binding signal: 1.18
ETS1
  binding signal: 1.25

## ATTGAT
GABPA
  binding signal: 1.39
ETS1
  binding signal: 1.19

## GTACAT
GABPA
  binding signal: 1.17
ETS1
  binding signal: 1.39

## TCACAG
GABPA
  binding signal: 1.1
ETS1
  binding signal: 1.07

## CTGGAC
GABPA
  binding signal: 1.17
ETS1
  binding signal: 1.14

## CTTTTC
GABPA
  binding signal: 1.34
ETS1
  binding signal: 1.47

## TTCCCC
GABPA
  binding signal: 1.71
ETS1
  binding signal: 1.68

## TCTACG
GABPA
  binding signal: 1.3
ETS1
  binding signal: 1.45
SPDEF
  binding signal: 1.33

## ACCGTC
GABPA
  binding signal: 1.26
ETS1
  binding signal: 1.15
